These are yes or no findings as the source states them, for the method shown. Some binding calls cover weakened binding; strength is not graded here.
Experiments:
[1] = molecular target: signal-regulatory protein alpha (SIRPα; CD172A) (UniProt P78324); assay: ELISA, exosomes
[2] = molecular target: integrin αvβ3 protein (UniProt P06756); assay: ELISA, exosomes on αvβ3
[3] = molecular target: integrin αvβ3 protein (UniProt P06756); assay: ELISA, exosomes

The chains behind the UniProt entries cited, without tags or fusion partners. Where a name states a change or a piece, a line headed by the entry shows the natural chain unless it says otherwise. A line that says so, or that is headed by a name, gives the form on record, which may keep a tag or linker. Residues count along the entry.
UniProt P78324, residues 31-370: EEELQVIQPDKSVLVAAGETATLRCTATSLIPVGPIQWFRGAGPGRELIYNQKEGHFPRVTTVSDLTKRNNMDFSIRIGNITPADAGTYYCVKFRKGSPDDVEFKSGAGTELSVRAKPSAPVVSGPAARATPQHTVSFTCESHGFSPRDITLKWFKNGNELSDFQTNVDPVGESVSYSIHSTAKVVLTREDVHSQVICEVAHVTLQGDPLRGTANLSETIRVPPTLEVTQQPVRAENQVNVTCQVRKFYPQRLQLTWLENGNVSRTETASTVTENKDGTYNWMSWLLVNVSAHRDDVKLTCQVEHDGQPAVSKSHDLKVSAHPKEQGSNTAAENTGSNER
UniProt P06756: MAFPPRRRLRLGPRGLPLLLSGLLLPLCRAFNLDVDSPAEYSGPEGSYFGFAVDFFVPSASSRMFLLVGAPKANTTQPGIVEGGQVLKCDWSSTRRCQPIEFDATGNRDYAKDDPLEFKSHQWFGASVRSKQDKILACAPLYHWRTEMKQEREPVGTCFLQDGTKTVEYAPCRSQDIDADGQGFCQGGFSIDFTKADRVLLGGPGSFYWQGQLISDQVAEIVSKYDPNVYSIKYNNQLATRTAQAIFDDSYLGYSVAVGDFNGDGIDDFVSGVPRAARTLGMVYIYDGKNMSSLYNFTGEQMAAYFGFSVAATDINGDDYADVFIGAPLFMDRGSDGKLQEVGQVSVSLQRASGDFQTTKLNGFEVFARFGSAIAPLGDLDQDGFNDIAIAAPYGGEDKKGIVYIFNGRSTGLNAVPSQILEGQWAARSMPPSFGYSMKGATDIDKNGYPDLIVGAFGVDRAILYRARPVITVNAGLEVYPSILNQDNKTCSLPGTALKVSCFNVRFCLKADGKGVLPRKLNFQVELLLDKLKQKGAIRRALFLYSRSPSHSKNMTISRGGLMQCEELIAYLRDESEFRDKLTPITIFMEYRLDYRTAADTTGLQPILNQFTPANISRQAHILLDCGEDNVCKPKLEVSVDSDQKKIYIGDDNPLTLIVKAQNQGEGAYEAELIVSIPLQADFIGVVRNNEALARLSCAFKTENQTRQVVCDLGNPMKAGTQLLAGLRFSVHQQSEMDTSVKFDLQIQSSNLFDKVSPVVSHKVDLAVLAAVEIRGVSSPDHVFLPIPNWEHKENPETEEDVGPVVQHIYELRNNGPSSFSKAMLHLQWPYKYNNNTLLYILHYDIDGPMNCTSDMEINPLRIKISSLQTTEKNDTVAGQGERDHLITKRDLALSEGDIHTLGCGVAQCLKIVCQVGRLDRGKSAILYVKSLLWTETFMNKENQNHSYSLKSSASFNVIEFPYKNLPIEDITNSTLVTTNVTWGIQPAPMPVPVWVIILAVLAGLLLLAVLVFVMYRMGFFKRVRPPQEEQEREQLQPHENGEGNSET
CD9_E174-CD47^p110-130-Flag displayed on exosomes (Exo^CD9-CD47p110-130-Flag) (P21926, form named): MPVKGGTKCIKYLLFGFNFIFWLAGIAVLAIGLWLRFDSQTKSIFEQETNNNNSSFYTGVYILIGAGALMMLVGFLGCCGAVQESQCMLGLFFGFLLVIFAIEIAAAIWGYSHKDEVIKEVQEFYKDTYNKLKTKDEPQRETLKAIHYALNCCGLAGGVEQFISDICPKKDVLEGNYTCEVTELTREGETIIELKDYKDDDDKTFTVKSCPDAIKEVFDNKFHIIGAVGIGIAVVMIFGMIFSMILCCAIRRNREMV
CD9_E174-HA-RGD displayed on exosomes (Exo^CD9_E174-HA-RGD) (P21926, form named): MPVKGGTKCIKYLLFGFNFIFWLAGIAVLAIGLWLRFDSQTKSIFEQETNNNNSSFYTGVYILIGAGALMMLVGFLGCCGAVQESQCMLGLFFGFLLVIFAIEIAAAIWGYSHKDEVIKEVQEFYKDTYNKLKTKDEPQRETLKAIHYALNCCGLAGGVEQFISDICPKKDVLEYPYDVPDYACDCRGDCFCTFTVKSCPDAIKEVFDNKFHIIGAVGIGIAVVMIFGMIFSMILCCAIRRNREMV

| Substance | binding [1] | binding [2] | binding [3] |
| --- | --- | --- | --- |
| CD9_E174-CD47^p110-130-Flag displayed on exosomes (Exo^CD9-CD47p110-130-Flag) (from UniProt P21926 1-174; P21926 175-228) | binds | – | – |
| CD9_E174-HA-RGD displayed on exosomes (Exo^CD9_E174-HA-RGD) (from UniProt P21926 1-174; P21926 175-228) | – | binds | – |
| Exo^Smart (exosome co-displaying CD9-HA-RGD and CD9-CD47^p110-130-Flag) (from UniProt P21926 1-174; P21926 175-228; P21926 1-174; P21926 175-228) | binds | – | binds |

Reference: US20240398974A1
